Test results: the supplement of paper PMC12819154, “High-throughput peptide-centric local stability assay extends protein–ligand identification to membrane proteins, tissues and bacteria” (Nature Structural & Molecular Biology, 2025)
The list shows a part of the results. Small differences around the control level are noise.

By UniProt entry, the sequences of proteins in these tests, tags left out. Where a name states a change or a piece, a line headed by the entry shows the natural chain unless it says otherwise.
UniProt Q9Z2Q2: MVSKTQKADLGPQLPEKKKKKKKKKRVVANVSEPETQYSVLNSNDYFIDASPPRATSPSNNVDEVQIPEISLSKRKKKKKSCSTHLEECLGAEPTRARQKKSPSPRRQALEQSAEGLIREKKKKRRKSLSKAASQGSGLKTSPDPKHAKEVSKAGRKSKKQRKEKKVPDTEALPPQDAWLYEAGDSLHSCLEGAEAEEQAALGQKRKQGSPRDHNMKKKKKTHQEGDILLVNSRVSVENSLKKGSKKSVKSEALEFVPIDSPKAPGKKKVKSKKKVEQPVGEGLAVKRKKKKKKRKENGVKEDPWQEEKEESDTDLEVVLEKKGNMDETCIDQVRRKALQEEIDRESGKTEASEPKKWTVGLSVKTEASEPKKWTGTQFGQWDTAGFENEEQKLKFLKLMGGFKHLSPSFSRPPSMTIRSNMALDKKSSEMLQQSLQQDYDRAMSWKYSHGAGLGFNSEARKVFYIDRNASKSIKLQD
UniProt Q9Z0S3: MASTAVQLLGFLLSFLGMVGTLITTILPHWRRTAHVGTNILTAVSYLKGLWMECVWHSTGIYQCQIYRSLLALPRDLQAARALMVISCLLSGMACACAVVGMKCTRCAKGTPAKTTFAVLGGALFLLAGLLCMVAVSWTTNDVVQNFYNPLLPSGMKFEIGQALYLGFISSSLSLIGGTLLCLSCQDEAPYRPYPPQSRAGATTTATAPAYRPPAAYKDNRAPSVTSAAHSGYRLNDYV
UniProt Q9WVG9: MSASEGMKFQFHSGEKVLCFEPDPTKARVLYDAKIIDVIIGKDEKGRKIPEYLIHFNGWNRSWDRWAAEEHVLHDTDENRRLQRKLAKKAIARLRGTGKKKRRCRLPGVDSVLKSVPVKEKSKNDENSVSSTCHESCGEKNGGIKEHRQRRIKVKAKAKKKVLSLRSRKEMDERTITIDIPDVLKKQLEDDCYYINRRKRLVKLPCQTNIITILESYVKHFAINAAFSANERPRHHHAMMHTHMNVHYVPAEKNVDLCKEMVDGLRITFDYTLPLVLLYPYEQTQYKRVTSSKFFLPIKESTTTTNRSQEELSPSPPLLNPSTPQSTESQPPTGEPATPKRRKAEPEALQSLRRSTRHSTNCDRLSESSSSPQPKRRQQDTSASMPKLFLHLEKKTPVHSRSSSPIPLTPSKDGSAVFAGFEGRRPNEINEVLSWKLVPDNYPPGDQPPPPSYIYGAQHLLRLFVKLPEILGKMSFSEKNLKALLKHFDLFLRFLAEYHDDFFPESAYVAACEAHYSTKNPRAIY
UniProt Q9Z2X1: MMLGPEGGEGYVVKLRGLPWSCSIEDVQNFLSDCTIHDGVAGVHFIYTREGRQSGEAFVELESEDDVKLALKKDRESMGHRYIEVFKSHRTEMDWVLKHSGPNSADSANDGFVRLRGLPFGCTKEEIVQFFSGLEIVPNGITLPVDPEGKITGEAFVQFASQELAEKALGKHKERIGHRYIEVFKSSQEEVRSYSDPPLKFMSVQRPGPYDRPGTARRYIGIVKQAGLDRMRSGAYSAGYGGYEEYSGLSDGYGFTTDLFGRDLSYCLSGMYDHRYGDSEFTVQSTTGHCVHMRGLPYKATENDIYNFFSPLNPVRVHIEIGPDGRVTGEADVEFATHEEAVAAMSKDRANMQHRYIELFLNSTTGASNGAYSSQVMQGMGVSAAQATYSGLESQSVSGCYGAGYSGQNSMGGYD

Compound: CN[C@@H]1C[C@H]2O[C@@](C)([C@@H]1OC)n1c3ccccc3c3c4c(c5c6ccccc6n2c5c31)C(=O)NC4 [staurosporine]
Experiment: log2 fold change of tryptic peptide abundance, ligand vs vehicle (limited proteolysis) (log2 ratio); higher = more trypsin-susceptible (destabilized)
Conditions: ligand concentration: 20 uM; sample: mouse liver crude lysate; replicate design: treated separately

“UniProt Q9Z2Q2 (peptide sequence: VSVENSLK, peptide start residue: 235)” was tested, and the log2 fold change was 0.33.
Target “UniProt Q9Z0S3 (peptide sequence: AGATTTATAPAYRPPAAYKDNR, peptide start residue: 200)” has a log2 fold change of -0.125.
In the case of “UniProt Q9WVG9 (peptide sequence: QQDTSASMPK, peptide start residue: 378)”, the log2 fold change is reported as 0.366.
“UniProt Q9Z2X1 (peptide sequence: HSGPNSADSANDGFVR, peptide start residue: 99)” gave a log2 fold change of -0.417.
